Substitutions are numbered along the chain they refer to. The exact form of at least one protein or probe is not confirmed. For some assays here: Weaker means in comparison with the reference protein, sequence or condition of that experiment. Where a protein sequence is shown, tags need not be part of it.
What was measured:
Assay in all cases: activity assay
[1] = biological target: T1, EcoDam P134G (Escherichia coli) (UniProt P0AEE8); conditions: N6-methyl-Ade in GATC of bottom strand (GMTC); normal activity; purified recombinant protein
T1 sequence: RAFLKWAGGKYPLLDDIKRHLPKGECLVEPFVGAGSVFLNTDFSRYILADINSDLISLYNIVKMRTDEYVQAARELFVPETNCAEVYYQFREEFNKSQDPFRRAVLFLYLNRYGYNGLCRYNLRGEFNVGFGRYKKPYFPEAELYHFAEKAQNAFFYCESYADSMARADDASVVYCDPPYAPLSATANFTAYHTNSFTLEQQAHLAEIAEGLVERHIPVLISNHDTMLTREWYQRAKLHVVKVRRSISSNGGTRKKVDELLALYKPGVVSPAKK

[2] = biological target: T2, EcoDam Y119A (Escherichia coli) (UniProt P0AEE8); conditions: N6-methyl-Ade in GATC of bottom strand (GMTC); methylation; purified recombinant protein
T2 sequence: T1 sequence with Y115A, G130P

[3] = biological target: T3, EcoDam DNA adenine methyltransferase (Escherichia coli) (UniProt P0AEE8); conditions: purified recombinant protein, protein details: His tag
T3 sequence: T1 sequence with G130P

[4] = biological target: T4, EcoDam K9A (Escherichia coli) (UniProt P0AEE8); conditions: N6-methyl-Ade in GATC of bottom strand (GMTC); methylation; purified recombinant protein
T4 sequence: T1 sequence with K5A, G130P

[5] = biological target: T5, EcoDam P134A (Escherichia coli) (UniProt P0AEE8); conditions: N6-methyl-Ade in GATC of bottom strand (GMTC); normal activity; purified recombinant protein
T5 sequence: T1 sequence with G130A

[6] = biological target: T6, EcoDam R124A (Escherichia coli) (UniProt P0AEE8); conditions: N6-methyl-Ade in GATC of bottom strand (GMTC); methylation; purified recombinant protein
T6 sequence: T1 sequence with R124A, G130P

[7] = biological target: T7, EcoDam L122A (Escherichia coli) (UniProt P0AEE8); conditions: almost inactive on unmethylated DNA; purified recombinant protein; variant of 20-mer hemimethylated GATC
T7 sequence: T1 sequence with L118A, G130P

Sequence | activity on this sequence [1] | activity on this sequence (fold reduced vs wild type) [2] | activity on this sequence ([3]; N6-methyl-Ade in GATC of bottom strand (GMTC), single-turnover methylation, near-cognate sites 100-1000 fold slower) | activity on this sequence (% of wild type) [4] | activity on this sequence [5] | activity on this sequence (fold reduced vs wild type) [6] | activity on this sequence [7] | activity on this sequence (fold rate vs hemimethylated) ([3]; methylation, variant of 20-mer hemimethylated GATC)
GCGACAGTGATCGGCCTGTC (double strand) [20-mer hemimethylated GATC] | active | > 100 | active | 60 | active | > 100 |  | 
GCGACAGTGATCGGCCTGTC (double strand) [20-mer unmethylated GATC] |  |  |  |  |  |  | less active | 2

— US20100035945A1, “SMALL MOLECULE INHIBITORS OF BACTERIAL DAM DNA METHYLTRANSFERASES” (priority 2004, published 2010)
